Data as given in PubChem BioAssay AID493246 (Drosophila RNAi Screening Center, 2011).
The deposit covers about 21,000 reagents; below is a random part of those with a known target gene and a result. In the full data, 429 (2%) got an active call. 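Values are raw and not normalised between plates; calls rest on per-plate z-scores that were not deposited.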 Reagents against one gene are numbered here. Not stated in the record: the amount of reagent, the time to read-out.

Screen: 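Genes fly cells need to grow and stay alive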 (primary screen)
Cell system: Drosophila Kc and S2R+ cells
Knock-down reagent: long dsRNA against Drosophila genes
Measurement: 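Raw, unnormalised count of remaining cells in each well; per-plate z-scores of cell number underlie the calls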
Direction: Kc cell number and S2R+ cell number: higher = more cells remaining
Call rule: 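Active when the per-plate z-score of cell number is 3 or more in the direction of fewer cells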

{"target gene":"Not3 (CCR4-NOT transcription complex subunit 3)","reagent no.":1,"Kc cell number, rep 1":1.19e6,"Kc cell number, rep 2":1.30e6,"S2R+ cell number, rep 1":9.33e5,"S2R+ cell number, rep 2":9.99e5,"outcome":"inactive"}
{"target gene":"Ccp84Ae","reagent no.":1,"Kc cell number, rep 1":1.44e6,"Kc cell number, rep 2":1.38e6,"S2R+ cell number, rep 1":1.06e6,"S2R+ cell number, rep 2":1.17e6,"outcome":"inactive"}
{"target gene":"CG34015","reagent no.":1,"Kc cell number, rep 1":1.23e6,"Kc cell number, rep 2":1.33e6,"S2R+ cell number, rep 1":1.07e6,"S2R+ cell number, rep 2":1.18e6,"outcome":"inactive"}
{"target gene":"CR15821 (pseudo)","reagent no.":1,"Kc cell number, rep 1":1.29e6,"Kc cell number, rep 2":1.31e6,"S2R+ cell number, rep 1":1.03e6,"S2R+ cell number, rep 2":1.31e6,"outcome":"inactive"}

An excerpt from above, limited to “Kc cell number, rep 1”.
Ccp84Ae	1.44e6
CG34015	1.23e6

Further records:
{"target gene":"Vps51 (Vacuolar protein sorting 51)","reagent no.":1,"Kc cell number, rep 1":1.43e6,"Kc cell number, rep 2":1.46e6,"S2R+ cell number, rep 1":1.25e6,"S2R+ cell number, rep 2":1.30e6,"outcome":"inactive"}
{"target gene":"FucT6 (alpha1,6-fucosyltransferase)","reagent no.":1,"Kc cell number, rep 1":5.88e5,"S2R+ cell number, rep 1":8.35e5,"outcome":"inactive"}
{"target gene":"CG15547","reagent no.":1,"Kc cell number, rep 1":1.65e6,"Kc cell number, rep 2":1.71e6,"S2R+ cell number, rep 1":1.06e6,"S2R+ cell number, rep 2":1.18e6,"outcome":"inactive"}
{"target gene":"CG16790","reagent no.":1,"Kc cell number, rep 1":1.49e6,"Kc cell number, rep 2":1.51e6,"S2R+ cell number, rep 1":1.24e6,"S2R+ cell number, rep 2":1.34e6,"outcome":"inactive"}
{"target gene":"CG1239","reagent no.":1,"Kc cell number, rep 1":1.56e6,"Kc cell number, rep 2":1.65e6,"S2R+ cell number, rep 1":1.32e6,"S2R+ cell number, rep 2":1.36e6,"outcome":"inactive"}
{"target gene":"gus (gustavus)","reagent no.":1,"Kc cell number, rep 1":1.41e6,"Kc cell number, rep 2":1.49e6,"S2R+ cell number, rep 1":1.20e6,"S2R+ cell number, rep 2":1.11e6,"outcome":"inactive"}
{"target gene":"gus (gustavus)","reagent no.":2,"Kc cell number, rep 1":1.19e6,"Kc cell number, rep 2":1.37e6,"S2R+ cell number, rep 1":1.04e6,"S2R+ cell number, rep 2":1.06e6,"outcome":"inactive"}
{"target gene":"CG32111 (retired record)","reagent no.":1,"Kc cell number, rep 1":1.49e6,"Kc cell number, rep 2":1.62e6,"S2R+ cell number, rep 1":1.06e6,"S2R+ cell number, rep 2":1.29e6,"outcome":"inactive"}
